Data from PubChem BioAssay AID1347426 (Functional Genomics Laboratory (NCATS/FGL), 2020).
In all, about 31,000 sequences went through this assay and about 1,400 (4.5%) were called active.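 How the source made its calls: active means median seed-adjusted z-score above 1 or below -1; inactive means the rest.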 Some of the results follow.

Experiment: Novel Modifiers of Survival Motor Neuron (SMN) Protein: Gene Identification via Genome-wide siRNA Screen;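 further: luminescence tracks full-length SMN protein made from the SMN2 reporter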
Settings: HEK293T SMN2-luciferase reporter, siRNA knockdown, 72 h; actives lie on both sides
Procedure, shortened: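 Steps: spot 1 pmol siRNA, add Lipofectamine RNAiMax in serum-free DMEM, seed HEK293T SMN2–luciferase reporter cells; incubate 72 h at 37 °C; add ONE-Glo; normalize luminescence to control siRNA, log10, MAD. Candidates: |MAD| > 1.0.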

| Sequence | median seed-adjusted z-score |
| --- | --- |
| CAACCAAUCAGAACCAUAATT against BTN3A3 | inactive: 0.886 |
| GACACUAUCUGGUCAGGUATT against NCAM1 | inactive: 0 |
| UGUUAUAACUUCACCAAUATT against CCL2 | inactive: 0.651 |
| GUUAAAAGAUGGUCAAGAATT against SLC22A5 | inactive: 0.349 |
| CCUAAAAAGUGACCAUCUATT against ZNF747 | inactive: 0.379 |
| CAUUGACCAUACUCCAGAATT against PPM1K | inactive: 0.154 |
| GCAAGACCAUCAACAAGAUTT against CHRNE | inactive: 0.349 |
| GUGAUGACCUGGAUAGUGATT against LRRK2 | inactive: -0.671 |
| CGGUUGGAUCCAUUACUCATT against OSBPL8 | inactive: 0.231 |
| CAAGGAAAAUUUGUGCAAATT against RBMS2 | inactive: -0.918 |
| GAAGCGCAGUCACCUGAAATT against PROC | inactive: -0.228 |
| GCAUGAACUGAAACCCAAUTT against SMURF1 | active: -1.4 |
| CAACUGAUGAGUAUCUAGATT against MRCL3 | inactive: -0.00909 |
| CCUUCACCCUUGUCCAAAATT against GPX2 | inactive: -0.21 |
| GAUUGUCGAGUGGACCAAATT against TRPM2 | inactive: 0.226 |
| UCUGGCUUAUUAUAACUAUTT against ACOT2 | inactive: 0.578 |
| GCAAAUGGGUAUCCACAGATT against COL16A1 | inactive: -0.0496 |
| CGCUCUACCUGAUCUGCUATT against SLC43A2 | inactive: -0.202 |
| CCAGUUCGCUAUCACCAAATT against MATN1 | inactive: -0.271 |
| CCUCAUGUCGGGCAUCUUATT against EGR4 | inactive: 0 |
| GGACCAUCCUCUCACUACUTT against NINJ2 | inactive: 0.133 |
| CUCCCGGACUUGUUCAACATT against TTLL4 | inactive: -0.256 |

| Sequence | median seed-adjusted z-score |
| --- | --- |
| GGAUCACUCUAACAUCGGATT against PDE1C | inactive: 0.157 |
| GAACUGAUCAUUAACGAGATT against PAK2 | inactive: 0.122 |
| GAAGUGUGGUUAAAGAGCATT against TPCN2 | inactive: -0.341 |
| GCCUUUCAUGAGUAUCUAUTT against GPR82 | inactive: -0.83 |
| GGAAACUGUCAUUUUUAUUTT against BTN2A2 | inactive: -0.0599 |
| GGACAUCUUUAAAGUACGATT against CR1 | inactive: 0.143 |
| GAAUACUUUUUCUCCCGAATT against PSMA5 | inactive: -0.824 |
| CCCAAUAACUUAAAGACCUTT against ICK | inactive: 0.638 |
| GACAAACUCGUAACGAUGATT against FLG | inactive: 0.221 |
| GGAGAGUCAUAAGCAACACTT against OLFM1 | inactive: -0.103 |
| GGCUCGAGAUUUAUACGAUTT against HECTD1 | inactive: -0.0588 |
| GAAUAGGUCUUAUACAACATT against RNF11 | inactive: -0.365 |
| GUGGAAGGCUUACAACCCATT against ALOX15B | inactive: 0.156 |
| CUACGACAAUUACCGGCGATT against RASGRP1 | inactive: -0.392 |
| CUGCUUGACUGGUUUGAGATT against PIM2 | inactive: 0.00597 |
| UGUGAUUGCCCUGCACAAATT against CXCR5 | inactive: 0.0406 |
| UGGAGAAGGCGGUUCCGUUTT against IRX4 | inactive: 0.0613 |
| GCUAAUUACAGCUUACAGATT against DPP6 | inactive: 0.0505 |
| GGUCAUAGAUAGCAUCAUATT against HAL | inactive: 0 |
| GUAUGGUAGCGAUAAGUUUTT against ST3GAL6 | inactive: -0.548 |
| GGGAAAGAGGUGAUCAACATT against RNASEH1 | inactive: -0.0205 |
| CGACGUAAAGUUCAACAGATT against PROX1 | inactive: -0.372 |

Reprinted from above for reference:

| Sequence | median seed-adjusted z-score |
| --- | --- |
| CUACGACAAUUACCGGCGATT against RASGRP1 | inactive: -0.392 |
| CUGCUUGACUGGUUUGAGATT against PIM2 | inactive: 0.00597 |

(list continues)

| Sequence | median seed-adjusted z-score |
| --- | --- |
| CCCUAGAGGAUGUAAAGCATT against DHX29 | inactive: -0.28 |
| CAACCAAUGAAUUUCCGAATT against PCSK5 | inactive: -0.158 |
| GAAACCCGGUGAAAAGAAATT against VARS2 | inactive: 0.288 |
| GGCCUAUCCUGAUUCUGAUTT against RND2 | inactive: -0.0613 |
| CUGUAGCAACAAUAUCGUATT against SLIT2 | inactive: -0.592 |
| CGUGGGAUAUGUUGACGGATT against BTNL3 | inactive: 0 |
| CCACCAUACCUGUCACAGATT against PITRM1 | inactive: -0.0959 |
| GACUUUCUCCGAUACAUGATT against ST6GALNAC1 | inactive: -0.854 |
| CCGUGGUUCUGUACAAUGUTT against SLC9A3 | inactive: 0.422 |
| GGGCUACGUGUUCAACUCATT against ALPI | inactive: 0 |
| GCACAAGCGUGUAAAAGAATT against SIRT4 | inactive: 0.623 |
| GAAUGACUACAAGUGGUUUTT against CTSC | inactive: 0 |
| GCAAUGAACUCAACAGCUATT against ANGPTL7 | inactive: 0 |
| GCUGGUACAUGACAUCCGATT against GGT7 | inactive: 0.135 |
| GGACCUACACUUUUCUCUUTT against FAM53B | inactive: -0.00535 |
| CCGCCGUUUUAAAAUCCCATT against DPP9 | inactive: -0.224 |
| AACUCUUCAGGUGAAGAUATT against SLC8A2 | inactive: 0 |
| CAAUAUGGAAAGAGAUAUATT against PLCG2 | inactive: 0 |
| GCUUGCCCACUACAAUUUUTT against TARS2 | inactive: -0.0143 |
| AACGCACUCUUCUACGUCATT against NTSR1 | active: -1.1 |
| GAGUUGUCUUUCAAUCGGATT against MYO5C | inactive: 0 |
| CGAGCAUUCUCUCUUGAAATT against MED24 | active: -2.3 |

| Sequence | median seed-adjusted z-score |
| --- | --- |
| CCACUAGUGAAACAACCAATT against PCLO | inactive: -0.734 |
| CACCCGUCCAUGUACUUCATT against L3MBTL | inactive: 0.0232 |
| CGAGCUGAGUGAUUGGUCATT against FXR1 | inactive: 0.131 |
| AGUUCACCCUCGUACUCUATT against FURIN | inactive: 0.0975 |
| CCAGGGUCAUCGAUCAGAATT against EPPK1 | inactive: 0.786 |
| GGGUUCCAAUAGAAACUUUTT against ACTL8 | inactive: 0 |
| UGAUAAGUAUGCUUCAGAATT against RAB12 | inactive: -0.185 |
| GAAUACUCAUUGAUAAGCUTT against RASSF9 | inactive: 0.314 |
| GGUUUCUACAGUCUGCAAATT against MID2 | inactive: -0.0363 |
| GUAUGUUCAGGAUAAUGGATT against CTSL1 | inactive: 0.378 |
| CAAAAGACAUACGAAGUUATT against GUF1 | inactive: 0.119 |
| CGACUCUAAUGAUGAGCGATT against DNAJC16 | inactive: 0 |
| CAAUUAAGCUUUCGAGUAUTT against CYP7B1 | inactive: 0.598 |
| CCCAAUCAAUGAACGGAGATT against SMC5 | inactive: 0.0666 |
| UGAUCGAGAUGGUACAAGATT against APTX | inactive: -0.131 |
| UGCACGAUCUUCUACCCAATT against TKTL1 | inactive: -0.495 |
| GAAAGUUCAUCUACUUAGATT against TNFRSF10A | inactive: 0.129 |
| CUGGAUCACUGUAACAGUATT against RNF138 | inactive: 0.265 |
| CUAGAGCUACCAUCCCGAATT against EIF4G3 | inactive: -0.0562 |
| CUGUAGAAAUGUAUCCUGATT against SOD1 | inactive: -0.8 |
| GCUUUGCUUUUCUAACAGATT against SDR42E1 | inactive: -0.109 |
| GUAACUUCCGUGACCCUAATT against TDRD6 | inactive: 0 |

| Sequence | median seed-adjusted z-score |
| --- | --- |
| AGGCCGAGAUUAUUGCCGATT against HNRNPA0 | inactive: 0.149 |
| AGAGUUUCGCUGUCCUGUATT against C8G | inactive: -0.622 |
| CAAAUACAGUGAGGACAUUTT against GPR83 | inactive: 0.105 |
| CCAGAGACAGUGACACGGATT against PTPRCAP | inactive: 0.372 |
| CAUCAAUUUGAGUUGUUCATT against PGRMC2 | inactive: -0.223 |
| AGCAGCAGCCUAAACUAUATT against WFDC10A | inactive: -0.439 |
| CACUGAUGCUCGGUCCAAATT against HMCN1 | inactive: 0.00218 |
| GGCUUAAAGCAAGCGGAUATT against CPS1 | inactive: -0.247 |
| CAGACUAAACUAUAGCGAUTT against SENP6 | active: -1.03 |
| GACUUACCAUUAUUCUGAATT against SELL | inactive: 0.554 |
| GGAUCAAGAUUAUUAACCATT against FOXM1 | inactive: -0.399 |
| GCAUGAUUGAUGAUAUGAUTT against MOV10L1 | inactive: -0.0497 |
| GACUCGAGAUCAACAGCAATT against SUFU | inactive: -0.263 |
| GCUCAUCGUGGGUCUCCUATT against POR | inactive: 0.189 |
| GGAAGAGUCUGAUCCGACATT against GDPD3 | inactive: -0.0754 |
| UCGUGGCGCUGUGCAAGAATT against HIC1 | inactive: 0.523 |
| GCUGUAAACAGGUGGAAAATT against RARRES3 | inactive: -0.033 |
| CCUCGAUCCUGAGAUUGUATT against CDK5 | inactive: 0.402 |
| GAUGCUACUUUAGAAUUAATT against GNPDA2 | inactive: -0.422 |
| GGACCGGUACGAAUUCUCUTT against IKZF4 | inactive: -0.426 |

Fetched one by one from the list above (two):

| Sequence | median seed-adjusted z-score |
| --- | --- |
| CAGACUAAACUAUAGCGAUTT against SENP6 | active: -1.03 |
| AGGCCGAGAUUAUUGCCGATT against HNRNPA0 | inactive: 0.149 |

Copied from the list.
median seed-adjusted z-score with GUAUGUUCAGGAUAAUGGATT against CTSL1 is entered as inactive: 0.378
median seed-adjusted z-score with GUGGAAGGCUUACAACCCATT against ALOX15B is entered as inactive: 0.156
median seed-adjusted z-score with GGUUUCUACAGUCUGCAAATT against MID2 is entered as inactive: -0.0363
